Measured values reported in article PMC4976255.
No constants are given. Whether binding was seen depends on the method and setting. In cells and extracts the contact can be indirect. Some entries that bind do so weakly or less than the wild type. Tags and fused reporters may be left off the sequences shown.

The chains behind the UniProt entries cited, without tags or fusion partners.
UniProt Q06413: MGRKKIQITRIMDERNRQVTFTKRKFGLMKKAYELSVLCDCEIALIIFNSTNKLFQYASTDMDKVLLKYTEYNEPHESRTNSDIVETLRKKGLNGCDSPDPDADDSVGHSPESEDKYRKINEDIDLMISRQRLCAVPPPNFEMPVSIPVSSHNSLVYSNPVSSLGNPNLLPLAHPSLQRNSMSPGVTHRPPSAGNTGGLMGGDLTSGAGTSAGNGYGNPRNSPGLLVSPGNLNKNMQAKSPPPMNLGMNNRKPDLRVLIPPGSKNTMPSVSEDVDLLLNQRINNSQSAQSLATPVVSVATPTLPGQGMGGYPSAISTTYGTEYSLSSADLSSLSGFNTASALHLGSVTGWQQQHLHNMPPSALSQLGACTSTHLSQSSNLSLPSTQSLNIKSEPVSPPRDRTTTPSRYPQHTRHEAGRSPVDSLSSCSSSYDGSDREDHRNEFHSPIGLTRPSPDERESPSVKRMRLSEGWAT

Legend:
[1] = target: T1, Myc-tagged myogenin (rat) (UniProt P20428); assay: co-IP; HEK-293 cells co-transfected with MEF2C-Flag and Myc-MRF4 or Myc-myogenin, plus a plasmid coding for E47; lysates immunoprecipitated with anti-Myc; Immunocruz IP/WB Optima System
T1 sequence: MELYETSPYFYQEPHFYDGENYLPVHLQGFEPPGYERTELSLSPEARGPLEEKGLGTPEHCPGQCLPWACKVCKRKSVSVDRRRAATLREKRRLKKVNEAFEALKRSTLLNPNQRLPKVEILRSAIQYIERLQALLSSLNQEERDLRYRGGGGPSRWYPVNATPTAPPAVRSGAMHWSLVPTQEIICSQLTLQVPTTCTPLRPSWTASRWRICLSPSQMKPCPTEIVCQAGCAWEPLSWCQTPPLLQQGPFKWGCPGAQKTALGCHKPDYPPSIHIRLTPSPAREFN

Myc-tagged MRF4 (mouse) = target: T2, Myc-tagged MRF4 (mouse) (UniProt P15375); assay: as above
T2 sequence: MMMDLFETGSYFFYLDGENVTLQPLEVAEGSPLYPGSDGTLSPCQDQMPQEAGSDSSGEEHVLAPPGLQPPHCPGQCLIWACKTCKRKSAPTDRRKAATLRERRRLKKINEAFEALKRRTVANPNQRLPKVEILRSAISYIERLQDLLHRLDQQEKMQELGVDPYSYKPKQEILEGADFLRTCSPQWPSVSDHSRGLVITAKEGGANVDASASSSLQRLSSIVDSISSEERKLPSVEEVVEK

binding [1]: binds
binding (Myc-tagged MRF4 (mouse)): binds
Substance: Flag-tagged MEF2C (from UniProt Q06413 1-473)
